Measurements reported in patent US8980908B2, “Non-peptidyl, potent, and selective mu opioid receptor antagonists and their use in treating opioid addiction and opioid induced constipation” (Virginia Commonwealth University, priority 2009, dated 2015).

System: mice
Assay: Warm-water tail immersion assay, antinociceptive effects (Example 5)
Set-up: species or system mouse (Swiss-Webster)
Conditions: mouse, in vivo

SMILES: CN1CC[C@]23c4c5ccc(O)c4O[C@H]2[C@@H](O)C=C[C@H]3[C@H]1C5.O=S(=O)(O)O [morphine, Morphine sulfate]
- ED50 (antinociception): 3.24 (2.44-4.31) mg/kg (95% CL)
